Results published in PMC5122457.
These are yes or no findings as the source states them, for the method shown. Binding seen in cells or lysates may run through a third protein. Binding can be weak; no strength is given. Where a sequence is shown, tags or fusion partners need not be part of it.

Molecular target: T1, GFP-ALDH1A3 full length (mouse) (UniProt Q9JHW9)
T1 sequence: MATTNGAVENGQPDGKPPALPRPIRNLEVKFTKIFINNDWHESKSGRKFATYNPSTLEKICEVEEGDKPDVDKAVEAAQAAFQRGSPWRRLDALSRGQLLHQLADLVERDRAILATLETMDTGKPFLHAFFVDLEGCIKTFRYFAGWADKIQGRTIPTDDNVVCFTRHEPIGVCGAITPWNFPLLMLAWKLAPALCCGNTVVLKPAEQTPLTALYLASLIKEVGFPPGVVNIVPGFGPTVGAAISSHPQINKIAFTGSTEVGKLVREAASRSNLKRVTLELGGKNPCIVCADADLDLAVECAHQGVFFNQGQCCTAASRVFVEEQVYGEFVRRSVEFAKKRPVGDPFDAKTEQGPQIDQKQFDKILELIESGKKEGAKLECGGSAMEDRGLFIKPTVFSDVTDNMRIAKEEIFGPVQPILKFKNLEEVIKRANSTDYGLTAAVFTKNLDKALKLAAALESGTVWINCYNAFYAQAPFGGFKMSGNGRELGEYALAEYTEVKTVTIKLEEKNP
Experiment: co-IP; HEK293 cells co-transfected with GFP-ALDH1A3 full length (or GFP as control), Flag-ALDH1A3 full length and 2.5 or 5 µg Flag-ALDH1A3△ plasmid; lysates immunoprecipitated with GFP antibody; blots with anti-GFP or anti-FLAG

**Q.** With Flag-ALDH1A3△ (mouse) as the substance, how does the binding read?
**A.** binds
